This passage reports binding results from publication PMC8745740.

Sequences of proteins named here, by UniProt entry; tags and fusion partners are left off.
UniProt G9I6Y2: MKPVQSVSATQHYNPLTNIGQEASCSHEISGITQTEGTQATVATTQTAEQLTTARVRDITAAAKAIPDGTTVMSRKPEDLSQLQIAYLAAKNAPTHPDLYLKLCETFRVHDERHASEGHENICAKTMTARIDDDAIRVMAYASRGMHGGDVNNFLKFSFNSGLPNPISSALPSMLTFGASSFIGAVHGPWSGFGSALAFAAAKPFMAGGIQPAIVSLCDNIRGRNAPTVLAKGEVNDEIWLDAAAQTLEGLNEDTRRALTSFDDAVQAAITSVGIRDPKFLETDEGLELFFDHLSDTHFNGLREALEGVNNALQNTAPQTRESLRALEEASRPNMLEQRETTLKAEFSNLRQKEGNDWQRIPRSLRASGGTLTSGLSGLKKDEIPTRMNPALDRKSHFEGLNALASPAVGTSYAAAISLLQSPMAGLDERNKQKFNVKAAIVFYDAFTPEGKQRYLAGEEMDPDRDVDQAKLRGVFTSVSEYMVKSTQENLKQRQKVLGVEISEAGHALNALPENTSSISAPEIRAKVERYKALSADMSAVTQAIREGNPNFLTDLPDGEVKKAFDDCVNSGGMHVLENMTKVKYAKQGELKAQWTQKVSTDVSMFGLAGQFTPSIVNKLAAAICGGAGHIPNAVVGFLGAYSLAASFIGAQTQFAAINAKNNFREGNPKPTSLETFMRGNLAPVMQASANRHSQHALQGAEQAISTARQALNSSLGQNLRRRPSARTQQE
UniProt K7ZLE1: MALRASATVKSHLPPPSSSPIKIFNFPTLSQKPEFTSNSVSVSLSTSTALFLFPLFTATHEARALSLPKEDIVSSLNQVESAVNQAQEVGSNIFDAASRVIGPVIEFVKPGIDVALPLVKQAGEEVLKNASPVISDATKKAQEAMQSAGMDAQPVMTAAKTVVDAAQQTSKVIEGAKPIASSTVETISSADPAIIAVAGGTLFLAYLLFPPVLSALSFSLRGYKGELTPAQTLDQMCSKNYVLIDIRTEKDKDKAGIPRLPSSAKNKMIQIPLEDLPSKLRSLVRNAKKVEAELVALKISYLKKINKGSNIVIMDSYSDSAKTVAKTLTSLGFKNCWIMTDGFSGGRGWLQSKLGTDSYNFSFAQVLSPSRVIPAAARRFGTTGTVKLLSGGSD

Results are given in words; binding and its absence hold for the method and conditions named. In cells and extracts the contact can be indirect. Some results given as binding are weak or reduced against the parent protein; the word gives no strength.

The target of experiment [1] is HopAU1-cYFP (Pseudomonas syringae pv. actinidiae strain M228) (UniProt G9I6Y2). Briefly: split reporter; BiFC: HopAU1-cYFP and nYFP-CaS co-expressed in N. benthamiana leaves by agroinfiltration; YFP read by confocal microscopy (excitation 514 nm, emission 530-575 nm).
Experiment [2] has as its target HopAU1-GFP fusion protein (Pseudomonas syringae pv. actinidiae strain M228) (UniProt G9I6Y2). In words: co-IP; HopAU1-GFP and CaS-mCherry transiently co-expressed in N. benthamiana, total protein extracted after 2 days; incubated with anti-GFP magnetic beads (GFP-Trap, ChromoTek) for 2 h at 4 °C; western blot with anti-GFP and anti-mCherry. (In general: In western blotting, separated proteins are transferred to a membrane and probed.)

Take “nYFP-CaS (calcium sensing receptor of N. benthamiana) (from UniProt K7ZLE1 1-394)”: the binding entry in experiment [1] is given as “binds”.

With “CaS-mCherry (calcium sensing receptor of N. benthamiana, NbCaS) (from UniProt K7ZLE1 1-394)”, the binding entry in experiment [2] is on record as “binds”.
